Some of the results follow. The signal is at background level for most entries.
Experiments:
Test in all cases: fluorescence intensity of antibody binding to polysaccharide-coupled beads; higher = stronger binding
[1] = biological target: pneumococcal polysaccharide Pn2
[2] = biological target: pneumococcal polysaccharide Pn20A
[3] = biological target: pneumococcal polysaccharide Pn20B
[4] = biological target: pneumococcal polysaccharide Pn21
[5] = biological target: pneumococcal polysaccharide Pn22A
[6] = biological target: pneumococcal polysaccharide Pn22F
[7] = biological target: pneumococcal polysaccharide Pn23A
[8] = biological target: pneumococcal polysaccharide Pn23B
[9] = biological target: pneumococcal polysaccharide Pn23F
[10] = biological target: pneumococcal polysaccharide Pn24A
[11] = biological target: pneumococcal polysaccharide Pn24B
[12] = biological target: pneumococcal polysaccharide Pn24F
[13] = antibody concentration 2337.65 ng/mL
[14] = antibody concentration 12500 ng/mL
[15] = antibody concentration 0.1 ng/mL
[16] = antibody concentration 0.534724 ng/mL
[17] = antibody concentration 2.8593 ng/mL
[18] = antibody concentration 15.2894 ng/mL
[19] = antibody concentration 81.7561 ng/mL
[20] = antibody concentration 437.17 ng/mL

B1: 4-127.5 (protein)
chain 1: QVQLQESGPGLVKPSETLSLTCAVSGYSISSGYGWSWIRQPPGKGLEWIGYIGGSDSSTNYNPSLKSRVTISKDTSKNQLSLKLRSVTAADTAVYYCGSRGAVAGLGGLDSWGQGLLVTVSS
chain 2: QSVLTQPPSVSGAPGQRVTISCTGSSSNIGAGYGVQWYQQLPGTAPKLLIYENNKRPSGVFDRFSGSQSGTSGSLTITGLQSEDEADYYCQSYDSSLKAVLFGGGTRLTVL
- fluorescence intensity [1, 13]: 26 MFI
- fluorescence intensity [1, 14]: 38.5 MFI
- fluorescence intensity [2, 15]: 24 MFI
- fluorescence intensity [2, 16]: 24 MFI
- fluorescence intensity [2, 17]: 23.5 MFI
- fluorescence intensity [2, 18]: 25 MFI
- fluorescence intensity [2, 19]: 24.8 MFI
- fluorescence intensity [2, 20]: 25 MFI
- fluorescence intensity [2, 13]: 39.5 MFI
- fluorescence intensity [2, 14]: 202 MFI
- fluorescence intensity [3, 15]: 24.5 MFI
- fluorescence intensity [3, 16]: 24.5 MFI
- fluorescence intensity [3, 17]: 25 MFI
- fluorescence intensity [3, 18]: 24.5 MFI
- fluorescence intensity [3, 19]: 25 MFI
- fluorescence intensity [3, 20]: 24.2 MFI
- fluorescence intensity [3, 13]: 27.5 MFI
- fluorescence intensity [3, 14]: 52.8 MFI
- fluorescence intensity [4, 15]: 19 MFI
- fluorescence intensity [4, 16]: 19.5 MFI
- fluorescence intensity [4, 17]: 18.5 MFI
- fluorescence intensity [4, 18]: 19.5 MFI
- fluorescence intensity [4, 19]: 19.5 MFI
- fluorescence intensity [4, 20]: 19 MFI
- fluorescence intensity [4, 13]: 21 MFI
- fluorescence intensity [4, 14]: 25 MFI
- fluorescence intensity [5, 15]: 23 MFI
- fluorescence intensity [5, 16]: 21 MFI
- fluorescence intensity [5, 17]: 21.5 MFI
- fluorescence intensity [5, 18]: 22 MFI
- fluorescence intensity [5, 19]: 21.5 MFI
- fluorescence intensity [5, 20]: 23.5 MFI
- fluorescence intensity [5, 13]: 29 MFI
- fluorescence intensity [5, 14]: 80 MFI
- fluorescence intensity [6, 15]: 31.8 MFI
- fluorescence intensity [6, 16]: 31 MFI
- fluorescence intensity [6, 17]: 28.2 MFI
- fluorescence intensity [6, 18]: 30.5 MFI
- fluorescence intensity [6, 19]: 32.5 MFI
- fluorescence intensity [6, 20]: 30.2 MFI
- fluorescence intensity [6, 13]: 36.2 MFI
- fluorescence intensity [6, 14]: 39 MFI
- fluorescence intensity [7, 15]: 24.5 MFI
- fluorescence intensity [7, 16]: 28.5 MFI
- fluorescence intensity [7, 17]: 27.2 MFI
- fluorescence intensity [7, 18]: 25.5 MFI
- fluorescence intensity [7, 19]: 29.2 MFI
- fluorescence intensity [7, 20]: 31.5 MFI
- fluorescence intensity [7, 13]: 54 MFI
- fluorescence intensity [7, 14]: 98 MFI
- fluorescence intensity [8, 15]: 33 MFI
- fluorescence intensity [8, 16]: 32 MFI
- fluorescence intensity [8, 17]: 32 MFI
- fluorescence intensity [8, 18]: 32 MFI
- fluorescence intensity [8, 19]: 31.8 MFI
- fluorescence intensity [8, 20]: 33.5 MFI
- fluorescence intensity [8, 13]: 35 MFI
- fluorescence intensity [8, 14]: 47 MFI
- fluorescence intensity [9, 15]: 17.5 MFI
- fluorescence intensity [9, 16]: 19.2 MFI
- fluorescence intensity [9, 17]: 18.8 MFI
- fluorescence intensity [9, 18]: 17.5 MFI
- fluorescence intensity [9, 19]: 18.2 MFI
- fluorescence intensity [9, 20]: 20.5 MFI
- fluorescence intensity [9, 13]: 22.8 MFI
- fluorescence intensity [9, 14]: 24.5 MFI
- fluorescence intensity [10, 15]: 16.5 MFI
- fluorescence intensity [10, 16]: 15 MFI
- fluorescence intensity [10, 17]: 15.8 MFI
- fluorescence intensity [10, 18]: 16 MFI
- fluorescence intensity [10, 19]: 16 MFI
- fluorescence intensity [10, 20]: 16.2 MFI
- fluorescence intensity [10, 13]: 18.5 MFI
- fluorescence intensity [10, 14]: 33.8 MFI
- fluorescence intensity [11, 15]: 18.5 MFI
- fluorescence intensity [11, 16]: 19 MFI
- fluorescence intensity [11, 17]: 20.5 MFI
- fluorescence intensity [11, 18]: 19 MFI
- fluorescence intensity [11, 19]: 20.2 MFI
- fluorescence intensity [11, 20]: 20.5 MFI
- fluorescence intensity [11, 13]: 26.5 MFI
- fluorescence intensity [11, 14]: 65 MFI
- fluorescence intensity [12, 15]: 19.8 MFI
- fluorescence intensity [12, 16]: 18.8 MFI
- fluorescence intensity [12, 17]: 18 MFI
- fluorescence intensity [12, 18]: 16.5 MFI
- fluorescence intensity [12, 19]: 18.5 MFI
- fluorescence intensity [12, 20]: 22 MFI
- fluorescence intensity [12, 13]: 31.5 MFI
- fluorescence intensity [12, 14]: 58 MFI

From the supplement of paper PMC11438910
